Data reported in patent US20040086901A1, “Database for analyzing gene function and method of analyzing gene function by dspa” (priority 2000, published 2004).
The amount applied is not stated for every result. Non-standard residues stand in square brackets, D forms with d. Residues, ends and D or L forms follow the SMILES beside them. Nle = CCCC[C@H](N)C(=O)O

Tests used:
Format in all cases: cell-based
[1] = test system: cells expressing per-1; assay: DSPA drug sensitivity pattern, per-1 cells; conditions: drug sensitivity pattern of F25 + substance vs per-1
[2] = test system: cells expressing CD44/H-CAM; assay: DSPA drug sensitivity pattern, CD44/H-CAM cells; conditions: drug sensitivity pattern of F25 + substance vs CD44/H-CAM
[3] = test system: cells expressing CD44/3E; assay: DSPA drug sensitivity pattern, CD44/3E cells; conditions: drug sensitivity pattern of F25 + substance vs CD44/3E
[4] = test system: cells expressing CD44/3s; assay: DSPA drug sensitivity pattern, CD44/3s cells; conditions: drug sensitivity pattern of F25 + substance vs CD44/3s
[5] = test system: cells expressing Jagged-1; assay: DSPA drug sensitivity pattern, Jagged-1 cells; conditions: drug sensitivity pattern of F25 + substance vs Jagged-1
[6] = test system: cells expressing p94-WT; assay: DSPA drug sensitivity pattern, p94-WT cells; conditions: drug sensitivity pattern of F25 + substance vs p94-WT
[7] = test system: FBRCA1-13 cells; assay: DSPA drug sensitivity pattern, FBRCA1-13 cells; conditions: drug sensitivity pattern of F25 + substance vs FBRCA1-13
[8] = test system: FMDM2hwt-6 cells; assay: DSPA drug sensitivity pattern, FMDM2hwt-6 cells; conditions: drug sensitivity pattern of F25 + substance vs FMDM2hwt-6
[9] = test system: p27-3 cells; assay: DSPA drug sensitivity pattern, p27-3 cells; conditions: drug sensitivity pattern of F25 + substance vs p27-3
[10] = test system: MSSP-10 cells; assay: DSPA drug sensitivity pattern, MSSP-10 cells; conditions: drug sensitivity pattern of F25 + substance vs MSSP-10
[11] = test system: MM1 cells; assay: DSPA drug sensitivity pattern, MM1 cells; conditions: drug sensitivity pattern of F25 + substance vs MM1
[12] = test system: AMY1 cells; assay: DSPA drug sensitivity pattern, AMY1 cells; conditions: drug sensitivity pattern of F25 + substance vs AMY1
[13] = test system: Max cells; assay: DSPA drug sensitivity pattern, Max cells; conditions: drug sensitivity pattern of F25 + substance vs Max
[14] = test system: TERT-DN cells; assay: DSPA drug sensitivity pattern, TERT-DN cells; conditions: drug sensitivity pattern of F25 + substance vs TERT-DN
[15] = test system: PTEN-G129R cells; assay: DSPA drug sensitivity pattern, PTEN-G129R cells; conditions: drug sensitivity pattern of F25 + substance vs PTEN-G129R
[16] = test system: Bcl-2 cells; assay: DSPA drug sensitivity pattern, Bcl-2 cells; conditions: drug sensitivity pattern of F25 + substance vs Bcl-2
[17] = test system: per2 cells; assay: DSPA drug sensitivity pattern, per2 cells; conditions: drug sensitivity pattern of F25 + substance vs per2
[18] = test system: per3 cells; assay: DSPA drug sensitivity pattern, per3 cells; conditions: drug sensitivity pattern of F25 + substance vs per3
[19] = test system: Cyclin D1-11 cells; assay: DSPA drug sensitivity pattern, Cyclin D1-11 cells; conditions: drug sensitivity pattern of F25 + substance vs Cyclin D1-
[20] = test system: STAT2-4 cells; assay: DSPA drug sensitivity pattern, STAT2-4 cells; conditions: drug sensitivity pattern of F25 + substance vs STAT2-4
[21] = test system: Bad-22 cells; assay: DSPA drug sensitivity pattern, Bad-22 cells; conditions: drug sensitivity pattern of F25 + substance vs Bad-22
[22] = test system: FAPP-4 cells; assay: DSPA drug sensitivity pattern, FAPP-4 cells; conditions: drug sensitivity pattern of F25 + substance vs FAPP-4
[23] = test system: FHO-6 cells; assay: DSPA drug sensitivity pattern, FHO-6 cells; conditions: drug sensitivity pattern of F25 + substance vs FHO-6

Structure (SMILES) | correlation coefficient (r) with per-1 [1] | correlation coefficient (r) with CD44/H-CAM [2] | correlation coefficient (r) with CD44/3E [3] | correlation coefficient (r) with CD44/3s [4] | correlation coefficient (r) with Jagged-1 [5] | correlation coefficient (r) with p94-WT [6] | correlation coefficient (r) with FBRCA1-13 [7] | correlation coefficient (r) with FMDM2hwt-6 [8] | correlation coefficient (r) with p27-3 [9] | correlation coefficient (r) with MM1 [11] | correlation coefficient (r) with AMY1 [12] | correlation coefficient (r) with Max [13] | correlation coefficient (r) with TERT-DN [14] | correlation coefficient (r) with PTEN-G129R [15] | correlation coefficient (r) with Bcl-2 [16] | correlation coefficient (r) with per2 [17] | correlation coefficient (r) with per3 [18] | correlation coefficient (r) with Cyclin D1- [19] | correlation coefficient (r) with STAT2-4 [20] | correlation coefficient (r) with Bad-22 [21] | other results
O=C(O)c1cc(C(=O)O)c2c(n1)C(=O)C(=O)c1cc(C(=O)O)[nH]c1-2 [PQQ] | −0.24 | 0.09 | −0.13 | 0.01 | 0.53 | 0.20 | 0.10 | 0.40 | 0.52 | −0.03 | −0.13 | −0.06 | −0.62 | −0.30 | −0.07 | −0.20 | 0.09 | 0.11 | 0.44 | 0.08 | correlation coefficient (r) with MSSP-10 [10]: 0.50; correlation coefficient (r) with FAPP-4 [22]: 0.12; correlation coefficient (r) with FHO-6 [23]: 0.30
COc1cccc(-c2cc(=O)c3ccccc3o2)c1N [PD98059] | −0.16 | −0.03 | −0.26 | −0.36 | −0.01 | 0.21 | −0.56 | −0.45 | −0.08 | 0.05 | 0.21 | 0.09 | 0.29 | 0.15 | 0.02 | 0.22 | 0.06 | −0.21 | 0.15 | 0.01 | correlation coefficient (r) with MSSP-10 [10]: −0.44; correlation coefficient (r) with FAPP-4 [22]: −0.02; correlation coefficient (r) with FHO-6 [23]: −0.13
CCCC[C@@H](C=O)NC(=O)[C@H](CC(C)C)NC(=O)[C@H](CC(C)C)NC(C)=O [ALLN] (Ac-Leu-Leu-[Nle]-aldehyde) | 0.20 | 0.00 | −0.37 | −0.50 | −0.15 | 0.32 | −0.07 | −0.27 | −0.04 | 0.23 | 0.03 | −0.08 | 0.27 | −0.09 | 0.05 | 0.24 | 0.04 | −0.55 | −0.02 | 0.03 | correlation coefficient (r) with FAPP-4 [22]: −0.22; correlation coefficient (r) with FHO-6 [23]: 0.16
C=CCN(CC(=O)OCC)C(=O)/C(C)=C/c1ccc(C(=O)Oc2ccc(C(=N)N)cc2)cc1.CS(=O)(=O)O [ONO3403] | 0.04 | 0.06 | 0.02 | 0.15 | −0.02 | 0.48 | 0.06 | −0.22 | 0.40 | 0.29 | 0.28 | 0.20 | 0.08 | 0.03 | 0.35 | 0.17 | 0.14 | −0.25 | 0.05 | 0.18 | correlation coefficient (r) with MSSP-10 [10]: −0.05; correlation coefficient (r) with FAPP-4 [22]: −0.32; correlation coefficient (r) with FHO-6 [23]: 0.33
C[C@@H](N)[C@H]1CC[C@H](C(=O)Nc2ccncc2)CC1 [Y27632] | 0.16 | 0.01 | 0.00 | −0.09 | −0.06 | 0.25 | −0.04 | −0.17 | 0.36 | 0.10 | 0.27 | 0.19 | 0.13 | 0.35 | 0.08 | 0.28 | 0.23 | −0.01 | 0.04 | 0.12 | correlation coefficient (r) with FAPP-4 [22]: −0.29; correlation coefficient (r) with FHO-6 [23]: 0.10
CC(C)(C)C(=O)Oc1ccc(S(=O)(=O)Nc2ccccc2C(=O)NCC(=O)O)cc1 [ONO5046] | −0.05 | −0.01 | −0.04 | 0.06 | 0.42 | 0.20 | −0.07 | 0.14 | 0.37 | −0.01 | −0.18 | −0.05 | −0.28 | −0.29 | 0.14 | −0.15 | −0.01 | −0.05 | 0.30 | 0.12 | correlation coefficient (r) with FAPP-4 [22]: 0.03; correlation coefficient (r) with FHO-6 [23]: 0.12
CC(=O)N[C@@H](CSC(=O)[C@]1([C@@H](O)C(C)C)NC(=O)[C@H](C)[C@@H]1O)C(=O)O [lactacystin] | 0.02 | 0.01 | 0.09 | 0.04 | 0.16 | 0.44 | −0.09 | −0.11 | 0.28 | 0.39 | 0.21 | 0.08 | 0.14 | 0.09 | 0.13 | 0.25 | 0.35 | −0.13 | 0.15 | 0.32 | correlation coefficient (r) with FAPP-4 [22]: −0.05; correlation coefficient (r) with FHO-6 [23]: 0.46
